Measurements reported in PubChem BioAssay AID1259405 (NCATS, 2018)
Purpose: 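Mouse-designed siRNAs used to find CHO productivity engineering targets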 (primary screen). System: Chinese hamster CHO-K1 ovary cells with stable secreted eGFP expression. Reagents: single siRNA against mouse genes, 0.8 pmol siRNA per well (2 µl of 400 nM stock). Duration: 3 days. Detection: 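Percent of the per-plate non-targeting control median for intracellular GFP per well by laser scanning cytometry and for cell viability by ATP luminescence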. Scale: GFP, % of control: higher = more GFP per well, higher productivity; viability (ATP), % of control: higher = more viable cells (more ATP). Call rule: 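Called active when intracellular GFP, relative to negative control, is at or above 120%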.
The deposit covers about 50,000 reagents; this is a random part of them. About 4,000 of all reagents (8%) were called active. 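Mouse siRNA library applied to hamster cells; one well for each siRNA.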 A number with no mark means an inactive call. Reagents against one gene are numbered here. No sequences are given here.

What is on record for Zfp146 (zinc finger protein 146) #1?
GFP, % of control: 77.9; viability (ATP), % of control: 111

With Zfp146 (zinc finger protein 146) #2, what does the deposit list?
GFP, % of control: 41.7; viability (ATP), % of control: 51

How did the screen score Zfp146 (zinc finger protein 146) #3?
GFP, % of control: 28.9; viability (ATP), % of control: 132

How did the screen score Or4m1 (olfactory receptor family 4 subfamily M member 1) #1?
GFP, % of control: 132 (active); viability (ATP), % of control: 107

Which result is listed for Or4m1 (olfactory receptor family 4 subfamily M member 1) #2?
GFP, % of control: 167 (active); viability (ATP), % of control: 91.9

How did the screen score Or4m1 (olfactory receptor family 4 subfamily M member 1) #3?
GFP, % of control: 82.8; viability (ATP), % of control: 91.7

For Tstd2 #1, what was measured?
GFP, % of control: 42.7; viability (ATP), % of control: 60.4

Which result is listed for Tstd2 #2?
GFP, % of control: 86.5; viability (ATP), % of control: 111

What is on record for Tstd2 #3?
GFP, % of control: 106; viability (ATP), % of control: 133

For Pik3cd, what does the deposit list?
GFP, % of control: 92.2; viability (ATP), % of control: 68.1

How did the screen score Tsen34 (tRNA splicing endonuclease subunit 34) #1?
GFP, % of control: 61.8; viability (ATP), % of control: 62.3

For Tsen34 (tRNA splicing endonuclease subunit 34) #2, how do the results read?
GFP, % of control: 61.6; viability (ATP), % of control: 68.2

With Tsen34 (tRNA splicing endonuclease subunit 34) #3, what does the deposit list?
GFP, % of control: 140 (active); viability (ATP), % of control: 85.8

With Spred1 (sprouty protein with EVH-1 domain 1, related sequence) #1, how do the results read?
GFP, % of control: 89.2; viability (ATP), % of control: 83.6

How did the screen score Spred1 (sprouty protein with EVH-1 domain 1, related sequence) #2?
GFP, % of control: 101; viability (ATP), % of control: 80.2

For Spred1 (sprouty protein with EVH-1 domain 1, related sequence) #3, how do the results read?
GFP, % of control: 48.2; viability (ATP), % of control: 50.9

Reformatted: entries from further up.
{"Gene": "Or4m1 (olfactory receptor family 4 subfamily M member 1)", "reagent no.": 2, "GFP, % of control": "167 (active)", "viability (ATP), % of control": 91.9}
{"Gene": "Or4m1 (olfactory receptor family 4 subfamily M member 1)", "reagent no.": 3, "GFP, % of control": 82.8, "viability (ATP), % of control": 91.7}
